# Primary screen of a compound library

By UniProt entry, the sequences of proteins in these tests, tags left out. Residues count along the entry.
UniProt Q4DA54, 1-478: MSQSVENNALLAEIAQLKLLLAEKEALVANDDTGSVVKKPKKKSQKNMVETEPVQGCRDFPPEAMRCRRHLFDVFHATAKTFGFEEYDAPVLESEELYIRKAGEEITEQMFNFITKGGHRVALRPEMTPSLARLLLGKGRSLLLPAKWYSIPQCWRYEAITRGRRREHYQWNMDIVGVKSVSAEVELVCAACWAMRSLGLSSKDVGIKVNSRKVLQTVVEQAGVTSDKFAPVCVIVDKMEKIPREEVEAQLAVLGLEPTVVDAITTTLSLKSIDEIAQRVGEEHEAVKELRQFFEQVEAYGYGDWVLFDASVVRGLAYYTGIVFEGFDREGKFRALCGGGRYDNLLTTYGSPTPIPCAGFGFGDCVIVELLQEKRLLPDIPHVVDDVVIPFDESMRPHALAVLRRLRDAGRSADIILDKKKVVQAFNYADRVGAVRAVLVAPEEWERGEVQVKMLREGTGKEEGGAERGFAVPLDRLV
UniProt P9WNZ1, whole entry: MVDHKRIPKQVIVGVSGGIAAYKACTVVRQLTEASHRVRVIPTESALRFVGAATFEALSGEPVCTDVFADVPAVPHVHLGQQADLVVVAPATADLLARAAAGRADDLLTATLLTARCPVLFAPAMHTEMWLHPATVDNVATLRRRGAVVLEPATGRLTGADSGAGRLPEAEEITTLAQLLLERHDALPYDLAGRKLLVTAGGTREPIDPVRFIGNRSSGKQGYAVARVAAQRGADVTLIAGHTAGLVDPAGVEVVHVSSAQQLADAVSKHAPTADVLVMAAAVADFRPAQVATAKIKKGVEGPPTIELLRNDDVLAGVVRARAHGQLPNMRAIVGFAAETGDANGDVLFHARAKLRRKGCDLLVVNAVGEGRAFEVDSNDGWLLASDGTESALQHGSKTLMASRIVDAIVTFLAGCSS
UniProt P9WPC5, whole entry: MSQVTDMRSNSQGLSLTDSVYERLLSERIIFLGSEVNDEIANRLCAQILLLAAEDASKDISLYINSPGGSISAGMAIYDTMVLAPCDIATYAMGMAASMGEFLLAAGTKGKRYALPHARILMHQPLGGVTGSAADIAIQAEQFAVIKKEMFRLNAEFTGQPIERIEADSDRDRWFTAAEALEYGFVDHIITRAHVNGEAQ
UniProt P9WPC3, whole entry partner: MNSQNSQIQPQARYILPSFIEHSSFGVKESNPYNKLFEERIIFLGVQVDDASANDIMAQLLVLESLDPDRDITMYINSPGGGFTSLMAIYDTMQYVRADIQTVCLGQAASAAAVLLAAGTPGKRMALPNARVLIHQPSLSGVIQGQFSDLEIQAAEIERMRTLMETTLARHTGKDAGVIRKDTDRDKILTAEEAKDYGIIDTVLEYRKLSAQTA
UniProt Q8IDJ8, 1-583: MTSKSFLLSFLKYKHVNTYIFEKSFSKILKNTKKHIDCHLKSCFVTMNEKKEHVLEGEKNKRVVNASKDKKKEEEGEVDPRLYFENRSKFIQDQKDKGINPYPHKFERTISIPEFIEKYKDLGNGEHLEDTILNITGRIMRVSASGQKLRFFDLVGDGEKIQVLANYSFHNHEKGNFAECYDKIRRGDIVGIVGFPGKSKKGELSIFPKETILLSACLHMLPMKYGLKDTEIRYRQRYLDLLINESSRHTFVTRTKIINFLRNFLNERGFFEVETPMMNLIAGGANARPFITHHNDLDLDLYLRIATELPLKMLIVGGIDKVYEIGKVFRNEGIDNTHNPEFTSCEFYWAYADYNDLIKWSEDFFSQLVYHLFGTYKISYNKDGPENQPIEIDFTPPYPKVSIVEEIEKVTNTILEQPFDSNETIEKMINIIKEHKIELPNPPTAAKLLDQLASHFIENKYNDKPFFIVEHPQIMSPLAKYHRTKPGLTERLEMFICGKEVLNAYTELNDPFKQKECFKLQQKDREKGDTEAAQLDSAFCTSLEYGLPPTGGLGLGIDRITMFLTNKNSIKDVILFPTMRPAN

Measurements from “University of Dundee, Small-Polar-MMV Screening Library” (2021), ChEMBL document CHEMBL3988442.

Results are given as percent effect. How 0% and 100% were set is not recorded. Most values in the screen are low, and negative values occur. The compounds are a random part of those screened. Two or more numbers in one place are separate tests of the same structure; such repeats can differ widely. A dash means the value is not listed here; it may have been measured.

Leishmania in macrophages: 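Cell assay of Leishmania donovani living inside macrophages; the read-out is not stated. Compounds at 30 µM. Direction is inferred from retests: higher values go with stronger inhibition. About 69,000 compounds were tested under these conditions; 1.5% (about 1,000) showed 50% or more at least once.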
TcHisRS: 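Enzyme assay of histidyl-tRNA synthetase; the read-out is not stated. Target: Histidine-tRNA ligase, Trypanosoma cruzi CL Brener (UniProt Q4DA54). Tested at 30 µM. Higher reads as stronger inhibition (inferred: compounds with an IC50 in retests scored well above the rest). Size under these conditions: about 69,000 compounds, about 31 of them at 50% or above in at least one test.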
CoaBC: 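Coenzyme A biosynthesis protein CoaBC, Mycobacterium tuberculosis (UniProt P9WNZ1). Enzyme assay of CoaBC with a phosphate dye (Biomol Green) read at 650 nm. Concentration: 30 µM. Higher reads as stronger inhibition, judged from the few compounds that gave an IC50. Most strong results did not repeat in a second test. Of about 67,000 compounds tested this way, about 40 (0.06%) reached 50% or more in at least one test.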
ClpP1P2: 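Protease assay of ClpP1P2, read by the AMC dye that it sets free. Target: ClpP1P2, Mycobacterium tuberculosis (UniProt P9WPC5 and UniProt P9WPC3). Compounds at 50 µM. Higher reads as stronger inhibition, judged from the few compounds that gave an IC50. Most other retested compounds had strongly negative values. Size under these conditions: about 69,000 compounds, about 10 of them at 50% or above in at least one test.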
PfKRS1: 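Enzyme assay of the cytosolic lysyl-tRNA synthetase in 384-well plates, read by luminescence. Target: Lysine-tRNA ligase, Plasmodium falciparum 3D7 (UniProt Q8IDJ8). Concentration: 30 µM. Higher reads as stronger inhibition, judged from the few compounds that gave an IC50. About 69,000 compounds were tested under these conditions; 0.071% (about 49) showed 50% or more at least once.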

compound,Leishmania in macrophages,TcHisRS,CoaBC,ClpP1P2,PfKRS1
CCN(CC1CCOC1)C(=O)Nc1ccc(N2CCOCC2)nc1 (centres unmarked),-6.318%,6.158%,0.7895%,-9.501%,-1.64%
COCCN1CCN(CC(=O)NC2(C#N)CCCC2)CC1,21.7%,2.941%,2.233%,-0.6734%,-0.4676%
O=C(CCn1ccc(=O)[nH]c1=O)N1CCC(OCc2cccnc2)CC1,-11.66%,6.897%,3.321%,9.094%,-7.055%
CN(C)Cc1ccc(C2CCCCN2C(=O)c2cccnn2)cc1 (centres unmarked),1.197%,0%,1.587%,-0.962%,13.26%
Cc1ncsc1CNC(=O)CCN1CCN(c2ccccn2)CC1,2.606%,2.02%,4.214%,2.174%,7.045%
Cc1cc(C)n(CC2CCCN2C(=O)Cc2c(C)nc(C)[nH]c2=O)n1 (centres unmarked),2.591%,-0.8721%,-2.678%,-7.818%,-1.574%
O=C(O)C(F)(F)F.O=C(O)C(F)(F)F.[H][C@@]12CCN(Cc3ccoc3)C[C@@]1([H])[C@H](C(=O)NCc1ccccn1)CCO2,-7.225%,-,-,-,-
CN(C)C(=O)N1CCC2(CCCN(Cc3cnn(C)c3)C2)C1.O=C(O)C(F)(F)F (centres unmarked),-34.18%,-,-,-,-
O=C1Nc2ccccc2C1C1CCN(C(=O)C2CC2)CC1 (centres unmarked),6.728%,-0.9709%,-1.272%,-8.03%,0.8719%
O=C(NCCCNC(=O)c1cccc(O)c1)NCc1ccccc1F,7.933%,-1.087%,7.152%,-5.691%,8.137%
CN(Cc1ccc(F)cc1F)Cc1cc2c(cc1Br)OCCO2,10.03%,-0.5291%,1.789%,7.183%,2.702%
O=C(NCCc1nnc[nH]1)Nc1cccc(SC(F)F)c1,16.73%,4.217%,0.122%,-11.31%,-2.277%
CCn1cnnc1CCNS(=O)(=O)N1CCCC1c1ccco1 (centres unmarked),32.77%,1.587%,10.14%,13.93%,4.383%
CCn1nc(C)c(CCNC(=O)c2cccc(NCC(=O)O)c2)c1C,8.606%,2.793%,12.1%,-2.88%,-0.4078%
Fc1cnc(N2CCCC3(CCN(Cc4cccs4)C3)C2)nc1.O=C(O)C(F)(F)F.O=C(O)C(F)(F)F (centres unmarked),8.63%,-,-,-,-
CC(C)(NC(=O)c1scnc1Cl)c1ccccc1,26.6%,10.34%,6.349%,-2.252%,7.123%
COCC(=O)Nc1ccccc1-c1ccc(=O)n(C)n1,19.66% & 5.741%,4.124%,1.057%,-0.5612%,9.405%
CN(C)S(=O)(=O)NC1CCCc2c1cnn2-c1ccc(C(C)(C)C)cc1 (centres unmarked),27.24%,3.478%,5.018%,-2.055%,-2.121%
CCc1ccc(O)c(C(=O)N2CCN(CC(=O)N3CCCCC3)CC2)c1,21.44%,8.152%,-10.74%,6.925%,-2.161%
O=C([C@H]1CC[C@@H]2[C@@H](CCN2C2CCCCC2)O1)N1CCOCC1,-,6.145%,-1.818%,-2.939%,5.458%
CCCn1c(NC(=O)CNC(=O)OCC)nc2ccccc21,5.063%,5.263%,0%,-2.023%,3.832%
CC(C)n1c(=O)nc2n1C(=O)N(c1ccc(Br)cc1)C2,18.51%,-5.263%,0.5051%,-2.809%,6.352%
[H][C@@]12CCN(Cc3cccnc3)C(=O)[C@@]1([H])CN(Cc1ccoc1)C2,45.27%,-,-,-,-
O=C(O)C(F)(F)F.[H][C@@]12CN(Cc3ccccn3)C[C@]1([H])CN(C(=O)Cc1cccc(F)c1)C2,8.108%,-,-,-,-
CCC[C@@H]1CN(Cc2nnc(-c3cccc(F)c3)o2)C[C@H]1NC(C)=O,13.85%,5.82%,-0.4073%,4.898%,15.83%
Cc1ccc(-n2ccc3nc(N4CCCC4)ncc3c2=O)cc1C,-0.9574%,6.818%,-8.779%,2.981%,1.313%
COCCc1noc(Cn2ccc3ncccc3c2=O)n1,12.75%,4.04%,1.535%,-6.761%,9.602%
COCCN1CCN(c2ccc3ccc(C(=O)NC4CC4)cn23)CC1,-1.849%,34.95%,17.37%,17.5%,-5.587%
Cc1ccc(NS(=O)(=O)c2cc3c(c(C(=O)O)c2)OCCO3)cc1F,18.91%,0.5634%,1.908%,-0.6172%,0.3431%
CC(=O)NCc1nc(CC(C)C)nn1-c1cccc(C)c1,15%,7.407%,-0.4914%,-17.82%,4.663%
c1ccc(CCN2CCc3c(ncn3C3CC3)C2)nc1,-42.49%,4.386%,-1.263%,8.016%,0.3265%
Cc1cccc2c1C(=O)NC(c1cnc(C3CCC3)s1)N2 (centres unmarked),-31.28%,6.25%,2.926%,-15.43%,5.762%
CCCN(CCC)C(=O)c1sc(C)nc1C,-23.05%,7.937%,-6.405%,-6.106%,0.8829%
Cc1n[nH]c(C)c1CNCC(O)c1ccc(F)c(F)c1 (centres unmarked),-5.912%,3.448%,5.159%,0.346%,3.562%
CN1CC2(CCN(C(=O)c3cn4cccnc4n3)CC2)CC1=O,-9.039%,-1.22%,1.899%,14.3%,4.483%
Cc1ccc([C@@]2(O)CC[C@@H]3CN(S(=O)(=O)C(C)C)C[C@@H]32)cc1,-,1.493%,0.2433%,-11.45%,0.2688%
Cc1ccc(NC(=O)c2n[nH]c(-n3cnnc3)n2)cc1C,4.373%,-0.5464%,4.441%,-1.627%,-1.201%
Cc1cnc2n(c1=O)C(CC(=O)NCc1ccc(F)cc1)CS2 (centres unmarked),-6.661%,6.533%,-3.73%,4.875%,3.78%
COc1ccc(CC(=O)N2CCN(Cc3ccco3)C[C@@H]2C)cc1OC,-6.24%,8.812%,1.435%,7.432%,-2.192%
CCc1ccc(NC(=O)CCN2CC(n3nc(C)cc3C)C2)cc1,23.78%,13.07%,-1.942%,5.756%,6.789%
Cc1cccc(CN2CC[C@@H]3[C@@H]2CCN3C(=O)Cc2cccs2)n1,-,7.538%,3.589%,6.164%,5.022%
NC(=O)C1(c2cnccn2)CCCN1Cc1cccc(Cl)c1 (centres unmarked),3.205% & 18.89%,10%,1.695%,0.9815%,3.695%
Cn1cccc1-c1cc(C(=O)NCCc2nnc(N)s2)[nH]n1,-13.03%,6.557%,9.046%,3.392%,1.621%
CS(=O)(=O)NC[C@H]1OC[C@@H]2CN(Cc3cccnc3)CC[C@@H]21,-,4.444%,1.22%,-4.423%,2.477%
CC(=O)N(Cc1ncc(C(C)C)o1)C1CCN(CC2CCC2)C1 (centres unmarked),46.15%,12.54%,10.59%,-38.05%,0.6605%

The first 4 entries again:

compound	Leishmania in macrophages	TcHisRS	CoaBC	ClpP1P2	PfKRS1
CCN(CC1CCOC1)C(=O)Nc1ccc(N2CCOCC2)nc1 (centres unmarked)	-6.318%	6.158%	0.7895%	-9.501%	-1.64%
COCCN1CCN(CC(=O)NC2(C#N)CCCC2)CC1	21.7%	2.941%	2.233%	-0.6734%	-0.4676%
O=C(CCn1ccc(=O)[nH]c1=O)N1CCC(OCc2cccnc2)CC1	-11.66%	6.897%	3.321%	9.094%	-7.055%
CN(C)Cc1ccc(C2CCCCN2C(=O)c2cccnn2)cc1 (centres unmarked)	1.197%	0%	1.587%	-0.962%	13.26%